Experimental data: PubChem BioAssay AID1259308 (NCATS, 2017)
Here is a random part of about 59,000 reagents tested. About 1,510 of all reagents (2.6%) were called active. 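Calls use total luciferase alone and ignore viability, so some active siRNAs may act by altering cell number.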 Unmarked entries are inactive. Reagents against one gene are numbered here. Further read-outs or replicates are left out here.

Assay: 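Candidate targets for better recombinant protein yield in mammalian cells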 (primary screen)
Cells: human HEK293 embryonic kidney cells stably expressing firefly luciferase (HEK-CMV-Luc2-Hygro)
Reagents: single siRNA against human genes, 0.8 pmol siRNA per well
Timing: 72 h
Measured: 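Luciferase light (ONE-Glo) measured on one replicate plate set and viability (CellTiter-Glo) on the other, scaled to a negative control siRNA, with robust z-scores and luciferase per cell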
Reading the numbers: total luciferase, z-score and total luciferase, % of control: higher = more reporter protein produced
Active means: 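An siRNA counts as active if its total luciferase robust z-score exceeds 3; genes with two or more such siRNAs out of three were retested with fresh siRNAs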
Calls: active = raised luciferase; inactive = no rise

ST3GAL3 #1: total luciferase, z-score = -1.24; total luciferase, % of control = 57.2
ST3GAL3 #2: total luciferase, z-score = 2.55; total luciferase, % of control = 133
ST3GAL3 #3: total luciferase, z-score = -0.599; total luciferase, % of control = 70
PSMC2 #1: total luciferase, z-score = -0.00782; total luciferase, % of control = 81.7
PSMC2 #2: total luciferase, z-score = 0.362; total luciferase, % of control = 89.1
PSMC2 #3: total luciferase, z-score = -1.27; total luciferase, % of control = 56.5
COL13A1 #1: total luciferase, z-score = 0.299; total luciferase, % of control = 87.8
COL13A1 #2: total luciferase, z-score = -1.19; total luciferase, % of control = 58.1
COL13A1 #3: total luciferase, z-score = -1.8; total luciferase, % of control = 46.1

The list goes on (2 carried over from the part before).
COL13A1 #2: total luciferase, z-score = -1.19; total luciferase, % of control = 58.1
COL13A1 #3: total luciferase, z-score = -1.8; total luciferase, % of control = 46.1
NEK7 #1: total luciferase, z-score = -1.3; total luciferase, % of control = 56.1
NEK7 #2: total luciferase, z-score = -0.497; total luciferase, % of control = 72
NEK7 #3: total luciferase, z-score = 0.0213; total luciferase, % of control = 82.3
HAND2 #1: total luciferase, z-score = -0.503; total luciferase, % of control = 71.9
HAND2 #2: total luciferase, z-score = -0.972; total luciferase, % of control = 62.6
HAND2 #3: total luciferase, z-score = 0.223; total luciferase, % of control = 86.3
OR52E2 #1: total luciferase, z-score = 1.62; total luciferase, % of control = 114
OR52E2 #2: total luciferase, z-score = 1.79; total luciferase, % of control = 118
OR52E2 #3: total luciferase, z-score = -0.59; total luciferase, % of control = 70.1
OR4D11 #1: total luciferase, z-score = 1.21; total luciferase, % of control = 106
OR4D11 #2: total luciferase, z-score = 0.0381; total luciferase, % of control = 82.6
OR4D11 #3: total luciferase, z-score = 1.18; total luciferase, % of control = 105
